# According to paper PMC12006502:
# Amino acid sequences for entries named in this document (tags omitted).
# UniProt P01106: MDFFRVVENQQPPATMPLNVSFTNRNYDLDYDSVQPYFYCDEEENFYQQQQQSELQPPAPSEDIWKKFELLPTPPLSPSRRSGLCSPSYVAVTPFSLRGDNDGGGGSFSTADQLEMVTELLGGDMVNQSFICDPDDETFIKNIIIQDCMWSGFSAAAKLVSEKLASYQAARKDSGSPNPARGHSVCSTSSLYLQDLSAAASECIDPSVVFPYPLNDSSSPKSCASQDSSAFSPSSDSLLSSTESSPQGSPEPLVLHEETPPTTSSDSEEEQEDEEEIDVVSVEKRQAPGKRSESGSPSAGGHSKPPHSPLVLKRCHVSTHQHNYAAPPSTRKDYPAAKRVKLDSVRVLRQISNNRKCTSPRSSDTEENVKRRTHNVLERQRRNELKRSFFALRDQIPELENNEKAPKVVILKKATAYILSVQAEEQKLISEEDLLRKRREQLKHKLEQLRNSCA
# UniProt Q92831: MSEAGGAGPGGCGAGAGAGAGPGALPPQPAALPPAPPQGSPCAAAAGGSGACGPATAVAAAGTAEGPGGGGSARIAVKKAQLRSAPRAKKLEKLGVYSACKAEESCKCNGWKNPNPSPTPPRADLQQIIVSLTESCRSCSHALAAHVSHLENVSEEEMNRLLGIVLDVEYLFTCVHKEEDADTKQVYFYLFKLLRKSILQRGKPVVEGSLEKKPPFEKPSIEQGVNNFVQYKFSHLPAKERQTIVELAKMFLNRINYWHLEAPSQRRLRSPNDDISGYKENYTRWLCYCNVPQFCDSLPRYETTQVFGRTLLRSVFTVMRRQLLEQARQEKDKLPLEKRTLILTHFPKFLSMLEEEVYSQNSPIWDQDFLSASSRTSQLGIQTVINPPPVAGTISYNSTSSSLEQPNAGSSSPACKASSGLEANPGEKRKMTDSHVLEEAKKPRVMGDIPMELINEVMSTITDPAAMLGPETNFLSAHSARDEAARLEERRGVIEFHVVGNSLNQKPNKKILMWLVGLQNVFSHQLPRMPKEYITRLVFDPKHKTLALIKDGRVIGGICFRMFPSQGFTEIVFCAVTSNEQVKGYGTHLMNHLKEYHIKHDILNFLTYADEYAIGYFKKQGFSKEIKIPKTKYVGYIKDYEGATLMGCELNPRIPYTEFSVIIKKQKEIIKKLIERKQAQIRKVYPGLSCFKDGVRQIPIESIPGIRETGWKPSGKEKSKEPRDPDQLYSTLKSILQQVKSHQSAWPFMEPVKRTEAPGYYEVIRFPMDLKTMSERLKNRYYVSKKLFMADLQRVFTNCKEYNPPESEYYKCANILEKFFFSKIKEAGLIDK
# These are yes or no findings as the source states them, for the method shown. In cells and extracts the contact can be indirect. Some results given as binding are weak or reduced against the parent protein; the word gives no strength.
# Experiments:
# [1] = target: EGFP-TACC3 (Transforming Acidic Coiled-Coil Containing Protein 3), full length, amino acids 1-838 (human) (UniProt Q9Y6A5); experiment: co-IP; 293T cells expressing EGFP-TACC3, endogenous c-Myc; IP buffer 150 mM NaCl, 5 mM EDTA, 0.5% NP-40, 50 mM Tris-HCl pH 8.0; overnight at 4 °C; immunoblot
# [2] = target: EGFP-TACC3 TACC domain, amino acids 639-838 (human) (UniProt Q9Y6A5); experiment: co-IP; HEK293T cells co-transfected with EGFP-tagged TACC3 constructs and Flag-tagged c-Myc; lysates IP with anti-GFP; IP buffer 150 mM NaCl, 5 mM EDTA, 0.5% NP-40, 50 mM Tris-HCl pH 8.0; immunoblot
# [3] = target: c-Myc, endogenous in bladder cancer cells (human (endogenous in TCCSUP and 5637)) (UniProt P01106); experiment: co-IP; endogenous proteins in TCCSUP and 5637 cells; IP with c-Myc antibody, IgG as negative control; IP buffer 150 mM NaCl, 5 mM EDTA, 0.5% NP-40, 50 mM Tris-HCl pH 8.0
# [4] = target: c-Myc, endogenous in bladder cancer cells (human (endogenous in TCCSUP and 5637)) (UniProt P01106); experiment: co-IP; MYC with PCAF and SIRT1 in cells with TACC3 overexpression or depletion, also with SIRT1 overexpression or knockdown; IP buffer 150 mM NaCl, 5 mM EDTA, 0.5% NP-40, 50 mM Tris-HCl pH 8.0
# [5] = target: c-Myc, endogenous in bladder cancer cells (human (endogenous in TCCSUP and 5637)), P01106; experiment: as above; conditions: remark: other sources report otherwise
molecule,measurement,setting,value
"c-Myc, endogenous in 293T cells (from UniProt P01106 1-454)",binding,[1],binds
Flag-tagged c-Myc (from UniProt P01106 1-454),binding,[2],binds
"TACC3, endogenous in bladder cancer cells (from UniProt Q9Y6A5 1-838)",binding,[3],binds
PCAF (histone acetyltransferase KAT2B) (from UniProt Q92831 1-832) (enzyme),binding,[4],binds
"SIRT1, Q96EB6 1-747 (enzyme) MADEAALALQPGGSPSAAGADREAASSPAGEPLRKRPRRDGPGLERSPGEPGGAAPEREVPAAARGCPGAAAAALWREAEAEAAAAGGEQEAQATAAAGEGDNGPGLQGPSREPPLADNLYDEDDDDEGEEEEEAAAAAIGYRDNLLFGDEIITNGFHSCESDEEDRASHASSSDWTPRPRIGPYTFVQQHLMIGTDPRTILKDLLPETIPPPELDDMTLWQIVINILSEPPKRKKRKDINTIEDAVKLLQECKKIIVLTGAGVSVSCGIPDFRSRDGIYARLAVDFPDLPDPQAMFDIEYFRKDPRPFFKFAKEIYPGQFQPSLCHKFIALSDKEGKLLRNYTQNIDTLEQVAGIQRIIQCHGSFATASCLICKYKVDCEAVRGDIFNQVVPRCPRCPADEPLAIMKPEIVFFGENLPEQFHRAMKYDKDEVDLLIVIGSSLKVRPVALIPSSIPHEVPQILINREPLPHLHFDVELLGDCDVIINELCHRLGGEYAKLCCNPVKLSEITEKPPRTQKELAYLSELPPTPLHVSEDSSSPERTSPPDSSVIVTLLDQAAKSNDDLDVSESKGCMEEKPQEVQTSRNVESIAEQMENPDLKNVGSSTGEKNERTSVAGTVRKCWPNRVAKEQISRRLDGNQYLFLPPNRYIFHGAEVYSDSEDDVLSSSSCGSNSDSGTCQSPSLEEPMEDESEIEEFYNGLEDEPDVPERAGGAGFGTDGDDQEAINEAISVKQEVTDMNYPSNKS",binding,[5],binds
